Assay results published in patent US20230190852A1, “COMPOSITIONS AND METHODS FOR JOINT HEALTH” (Unigen, Inc., priority 2013, published 2023).
Some of these results come from one statement about several compounds together.

System: CD-1 mice
Experiment: Nociceptive behavior model elicited by intraplantar injection of formalin
Format: in vivo
Details: single oral dose, inflammatory phase
Experimental: Mice (n=6 per group) were habituated under inverted Plexiglas observation chamber for 30 minutes to allow them to acclimatize to their surroundings. […] Mice were immediately transferred to their individual observational chamber. […] Mirrors positioned behind the chambers enabled observation of the right hind paw when it was obscured from direct view. […] These behavioral reactions observed for the first five minutes are due to direct action of the irritant on sensory nerve endings where is believed to be as a result of inflammation in the later phase. […] Mice were treated with curcumin (50, 100, 150 or 200 mg/kg) or ibuprofen (200 mg/kg) orally half an hour before intraplantar formalin injection.

SMILES	reduction in pain perception
COc1cc(/C=C/C(=O)CC(=O)/C=C/c2ccc(O)c(OC)c2)ccc1O [Curcumin]	greater than 50%
CC(C)Cc1ccc(C(C)C(=O)O)cc1 (centres unmarked) [Ibuprofen]	greater than 50%
